Laboratory results from patent US11766447B2, “3′3′-cyclic dinucleotide analogue comprising a cyclopentanyl modified nucleotide as sting modulator” (INSTITUTE OF ORGANIC CHEMISTRY AND BIOCHEMISTRY ASCR, V.V.I., priority 2019, dated 2023).
Read-outs that look alike come from different tables or passages of the source. At least one compound was matched to its structure with a doubt left.

Test system: peripheral blood mononuclear cells (PBMC)
Test: Peripheral blood mononuclear cell (PBMC) assay
Format: cell-based
Conditions: 1 h with compounds, washed, 15 hour incubation, average of one to four donors
Procedure: Selected compounds were tested in an in vitro peripheral blood mononuclear cell (PBMC) assay. […] Serially diluted tested compounds were added to wells in 50 μl of cultivation medium and cell were incubated with compounds for 1 h at 37° C. with 5% CO2. Plates with cells were then spun 500 g for 5 minutes and medium was removed. Cells were washed twice with the cell culture medium by the use of centrifugation and gently resuspended in 100 μl medium without compounds. After 15 hour incubation at 37° C. with 5% CO2, the cell culture medium was collected and the levels of interferon-alpha (INF-α), interferon-gamma (INF-γ) and tumor necrosis factor-alpha (TNF-α) were determined with ProcartaPlex Assays (ThermoFisher, Waltham, USA) and MAGPIX System (Merck KGaA, Darmstadt, Germany). […] Values reported are an average of runs from one to four donors.

CC(C)(C)C(=O)OCSP1(=O)OC[C@H]2C[C@@H](n3cnc4c(=O)[nH]c(N)nc43)C[C@@H]2OP(=O)(SCOC(=O)C(C)(C)C)OC[C@H]2O[C@@H](n3cnc4c(N)ncnc43)[C@H](F)[C@@H]2O1 (stereo partly drawn) [Compound 148, {[(1S,6R,8R,9R,10R,15R,17R)-17-(2-amino-6-oxo-6,9-dihydro-1H-purin-9-yl)-8-(6-amino-9H-purin-9-yl)-3-({[(2,2-dimethylpropanoyl)oxy]methyl}sulfanyl)-9-fluoro-3,12-dioxo-2,4,7,11,13-pentaoxa-3λ^5,12λ^5-diphosphatricyclo[13.3.0.0^6,10]octadecan-12-yl]sulfanyl}methyl 2,2-dimethylpropanoate]
EC50 (interferon-alpha level, read-out: PBMC EC50 (μM) IFN-α): 0.8 µM
EC50 (interferon-gamma level, read-out: PBMC EC50 (μM) IFN-γ): 0.6 µM
EC50 (tumor necrosis factor-alpha level, read-out: PBMC EC50 (μM) TNF-α): 0.3 µM
